# Data published in PubChem BioAssay AID330 (DTP/NCI, 2004).
# The list shows only some results of the screen, not a fair sample: it is rich in T/C values a quarter to a half above the control, in often repeated tests (any T/C) and in doses without a T/C. Further doses and runs are listed elsewhere. T/C: endpoint of the treated group in % of that of the vehicle group. Some entries give survivors of the animals treated and no T/C: the source files T/C as zero there, which appears to mark a toxic dose or a test without result, not a measured value. Some survivor counts are full or nearly so, which does not show that the dose was tolerated: survival well below the control is almost never listed, so the zero probably covers shortened survival too. Survivors were counted at the toxicity check, usually on the fifth day, unless a day is given; later deaths do not show. Schedule codes are those of the source, read here as Q, the interval in days (D) or hours (H), X, the number of doses. Some entries hold several experiments; the values are given in rising order. Where survival is the endpoint, this PubChem deposit counts one and a half times the control or more as active, and values a quarter to a half above the control carry no call in these data; other NCI protocols may use other cut-offs. Counts like (3×) stand for listed records that agree. Some T/C values carry the count of animals alive at the toxicity check (mostly the fifth day); without a count, all were alive then.
# System: P388 leukemia ip, CD2F1 mice, survival T/C
# Assay: NCI In Vivo Anticancer Drug Screen. Data for tumor model P388 Leukemia (intraperitoneal) in CD2F1 (CDF1) mice
# Conditions: T/C endpoint: median survival time, higher T/C = longer survival
# [1] = dose: 100.0 mg/kg/injection, schedule: Q01DX009 (ip), vehicle: distilled water + Tween-80
# [2] = dose: 400.0 mg/kg/injection, schedule: Q01DX009 (ip), vehicle: saline with Tween-80
# [3] = dose: 200.0 mg/kg/injection, schedule: Q01DX009 (ip), vehicle: saline
# [4] = dose: 12.5 mg/kg/injection, schedule: Q01DX009 (ip), vehicle: Klucel (hydroxypropylcellulose) (HPC)
# [5] = dose: 200.0 mg/kg/injection, schedule: Q01DX009 (ip), vehicle: Klucel (hydroxypropylcellulose) (HPC)
# [6] = dose: 3.13 mg/kg/injection, schedule: Q01DX009 (ip), vehicle: Klucel (hydroxypropylcellulose) (HPC)
compound,measurement,setting,value
O=[N+]([O-])c1ccc(C2=Nc3ccccc3N=C(c3ccccc3O)C2)cc1,survivor count,"dose: 7.5 mg/kg/injection, schedule: Q01DX005 (ip), vehicle: saline with Tween-80",6 of 6
same,survivor count,"dose: 15.0 mg/kg/injection, schedule: Q01DX005 (ip), vehicle: saline with Tween-80",6 of 6
same,survivor count,"dose: 30.0 mg/kg/injection, schedule: Q01DX005 (ip), vehicle: saline with Tween-80",6 of 6
same,survivor count,"dose: 60.0 mg/kg/injection, schedule: Q01DX005 (ip), vehicle: saline with Tween-80",6 of 6
same,survivor count,"dose: 120.0 mg/kg/injection, schedule: Q01DX005 (ip), vehicle: saline with Tween-80",4 of 6
CCCC/C=C(\C#N)SCC,survivor count,"dose: 150.0 mg/kg/injection, schedule: Q01DX009 (ip), vehicle: saline with Tween-80",4 of 6
same,survivor count,"dose: 300.0 mg/kg/injection, schedule: Q01DX009 (ip), vehicle: saline with Tween-80",0 of 6
Cn1c(/C=C/CO)c(CO)c2c1C(=O)C=C(N1CC1)C2=O,survivor count,"dose: 6.0 mg/kg/injection, schedule: Q01DX005 (ip), vehicle: saline",0 of 6
CCN(CC)CCCC(C)Nc1cc(C)nc2c1ccc1c2ccc2c(NC(C)CCCN(CC)CC)cc(C)nc21 (stereo unspecified),survivor count,"dose: 50.0 mg/kg/injection, schedule: Q01DX009 (ip), vehicle: distilled water + Tween-80",1 of 6
same,survivor count,[1],0 of 6
CCn1c(=O)c2[nH]c(SC)nc2n(CC)c1=O,survivor count,"dose: 400.0 mg/kg/injection, schedule: Q01DX009 (ip), vehicle: Klucel (hydroxypropylcellulose) (HPC)",0 of 6
COC(=O)C1=CO[C@@H](C)[C@@H]2CN3CCc4c([nH]c5cc(OC)ccc45)[C@@H]3C[C@H]12,survivor count,"dose: 200.0 mg/kg/injection, schedule: Q01DX005 (ip), vehicle: saline with Tween-80",5 of 5
C1CCCCC2=NCCC(CCCC1)C2 (stereo unspecified),survivor count,"dose: 200.0 mg/kg/injection, schedule: Q01DX005 (ip), vehicle: Klucel (hydroxypropylcellulose) (HPC)",0 of 6
CCN=NNc1ccc(C#N)cc1,survivor count,[1],3 of 3
N/N=C(\Cc1ccccc1)c1ccccc1,survivor count,"dose: 100.0 mg/kg/injection, schedule: Q01DX009 (ip), vehicle: saline with Tween-80",2 of 6
same,survivor count,"dose: 200.0 mg/kg/injection, schedule: Q01DX009 (ip), vehicle: saline with Tween-80",0 of 6
same,survivor count,[2],0 of 6
Cc1ccc(NC(=O)N2CCOCC2)cc1NC(=O)N1CCOCC1,survivor count,[3],6 of 6
Cc1cccc2c(-c3ccccc3)c3cccc[n+]3cc12,survivor count,"dose: 12.5 mg/kg/injection, schedule: Q01DX005 (ip), vehicle: Klucel (hydroxypropylcellulose) (HPC)",0 of 5
same,survivor count,"dose: 25.0 mg/kg/injection, schedule: Q01DX005 (ip), vehicle: Klucel (hydroxypropylcellulose) (HPC)",0 of 5
COc1cc(Br)c(C(=O)N2CCc3ccccc32)cc1OC,survivor count,"dose: 50.0 mg/kg/injection, schedule: Q01DX009 (ip), vehicle: other",6 of 6
same,survivor count,"dose: 100.0 mg/kg/injection, schedule: Q01DX009 (ip), vehicle: other",5 of 6
same,survivor count,"dose: 200.0 mg/kg/injection, schedule: Q01DX009 (ip), vehicle: other",6 of 6
NC(N)=N/N=C/C(Cl)Cl,survivor count,"dose: 200.0 mg/kg/injection, schedule: Q04DX003 (ip), vehicle: saline",1 of 6
same,survivor count,"dose: 400.0 mg/kg/injection, schedule: Q04DX003 (ip), vehicle: saline",0 of 6
CC(C)Cc1c(O)c(N=Nc2ccc(C(=O)O)c(O)c2)c2ccccc2c1O,survivor count,"dose: 400.0 mg/kg/injection, schedule: Q04DX002 (ip), vehicle: distilled water + alcohol",0 of 6
COc1ccc(CNCCCSC)cc1,survivor count,"dose: 200.0 mg/kg/injection, schedule: Q01DX005 (ip), vehicle: saline",0 of 6
C=C(CO)C(=O)OC1CC(=C)C2CC(O)C(C)C2C2OC(=O)C(=C)C12 (stereo unspecified),T/C,"dose: 3.0 mg/kg/injection, schedule: Q01DX009 (ip), vehicle: Klucel (hydroxypropylcellulose) (HPC)",125 % of control
CN(C)c1ccc(/C=[N+](\[O-])C(C)(C)CO)cc1,survivor count,"dose: 50.0 mg/kg/injection, schedule: Q01DX009 (ip), vehicle: saline with Tween-80",6 of 6
CCN(CC)C(=S)C(C)(C)C,survivor count,"dose: 240.0 mg/kg/injection, schedule: Q01DX005 (ip), vehicle: saline with Tween-80",0 of 6
COc1cc2cc[n+]3c(C)c4ccc(OC)c(OC)c4cc3c2cc1OC (tested in a mixture with another compound),T/C,"dose: 10.0 mg/kg/injection, schedule: Q01DX009 (ip), vehicle: saline",141 % of control (2×)
same,T/C,"dose: 20.0 mg/kg/injection, schedule: Q01DX009 (ip), vehicle: saline",145 % of control
C=C1C(=O)OC2C1CCC(=C)C1CC(O)C(=C)C12 (stereo unspecified),T/C,"dose: 37.5 mg/kg/injection, schedule: Q01DX009 (ip), vehicle: suspension in saline",133 % of control
same,T/C,"dose: 75.0 mg/kg/injection, schedule: Q01DX009 (ip), vehicle: suspension in saline, evaluated on day 20",140 % of control [5 of 6 alive]
same,T/C,"dose: 75.0 mg/kg/injection, schedule: Q01DX009 (ip), vehicle: suspension in saline, evaluated on day 23",133 % of control
same,survivor count,"dose: 150.0 mg/kg/injection, schedule: Q01DX009 (ip), vehicle: suspension in saline",3 of 6 and 4 of 6
Cc1cc(N(CCOS(C)(=O)=O)CCOS(C)(=O)=O)ccc1C=Nc1ccc(-c2nc(Cc3ccccc3)sc2C)cc1,T/C,[4],145 % of control
same,T/C,"dose: 50.0 mg/kg/injection, schedule: Q01DX009 (ip), vehicle: Klucel (hydroxypropylcellulose) (HPC)","155, 174, 175, 190 % of control"
same,T/C,"dose: 100.0 mg/kg/injection, schedule: Q01DX009 (ip), vehicle: Klucel (hydroxypropylcellulose) (HPC)","106, 112, 125, 155 % of control"
same,T/C,"dose: 100.0 mg/kg/injection, schedule: Q01DX009 (oral), vehicle: Klucel (hydroxypropylcellulose) (HPC)",136 % of control
same,T/C,[5],97 and 133 % of control
same,survivor count,[5],10 of 10 and 6 of 6
same,survivor count,"dose: 400.0 mg/kg/injection, schedule: Q01DX009 (oral), vehicle: Klucel (hydroxypropylcellulose) (HPC)",10 of 10
O=C1c2ccccc2C(=O)c2cc3c(cc21)OCO3,survivor count,"dose: 240.0 mg/kg/injection, schedule: Q01DX005 (ip), vehicle: Klucel (hydroxypropylcellulose) (HPC)",6 of 6
O=C1c2ccccc2NC(c2cc(Cl)cc(Cl)c2O)N1CCc1ccccn1 (stereo unspecified),survivor count,[3],6 of 6
CCC(C)CN1CCc2c3c(c(OC)c(OC)c2C1)CCC3 (stereo unspecified),survivor count,"dose: 400.0 mg/kg/injection, schedule: Q04DX002 (ip), vehicle: saline",3 of 6
CCC1(c2ccccc2)SC(=O)NC1=O (stereo unspecified),survivor count,[2],3 of 6
Clc1ccc2nc(Cl)c3ccccc3c2c1,T/C,"dose: 1.56 mg/kg/injection, schedule: Q01DX009 (ip), vehicle: Klucel (hydroxypropylcellulose) (HPC)",126 % of control
same,T/C,[6],130 % of control
same,survivor count,[6],6 of 6
same,survivor count,[4],6 of 6
